Earlier results, collected in patent publication US20080139463A1, “Use Of [D-Meala]3-[Etval]4-Cyclosporin For The Treatment Of Hepatitis C Infection And Pharmaceutical Composition Comprising Said [D-Meala]3-[Etval]4-Cyclosporin” (priority 2005, published 2008).
For at least one compound, name, drawing or mass did not settle the structure.

System: HCV replicon in MH-14 cells
Details: Northern blot and quantitative RT-PCR; cited from earlier work

## C=CC[C@@H]1/C=C(\C)C[C@H](C)C[C@H](OC)[C@H]2O[C@@](O)(C(=O)C(=O)N3CCCC[C@H]3C(=O)O[C@H](/C(C)=C/[C@@H]3CC[C@@H](O)[C@H](OC)C3)[C@H](C)[C@@H](O)CC1=O)[C@H](C)C[C@@H]2OC [FK506]
  HCV RNA accumulation inhibited: not
